Measurements published in paper doi:10.1101/2022.02.02.478874.
No constants are given. Whether binding was seen depends on the method and setting. For some assays here: Sequences can lack the tags named with a protein.

T1: Spindly^250-605 (human) (UniProt Q96EA4)
T1 sequence: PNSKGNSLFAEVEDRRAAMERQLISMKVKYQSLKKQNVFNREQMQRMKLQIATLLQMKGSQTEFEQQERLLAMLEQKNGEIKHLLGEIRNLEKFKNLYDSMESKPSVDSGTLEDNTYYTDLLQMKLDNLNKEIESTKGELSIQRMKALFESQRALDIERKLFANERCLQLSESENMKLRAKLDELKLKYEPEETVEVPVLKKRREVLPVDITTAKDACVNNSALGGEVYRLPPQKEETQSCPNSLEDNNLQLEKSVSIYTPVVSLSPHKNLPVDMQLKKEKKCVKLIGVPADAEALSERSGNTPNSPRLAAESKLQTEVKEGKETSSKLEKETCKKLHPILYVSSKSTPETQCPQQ

T2: Spindly^250-275_307-605 (human) (UniProt Q96EA4)
T2 sequence: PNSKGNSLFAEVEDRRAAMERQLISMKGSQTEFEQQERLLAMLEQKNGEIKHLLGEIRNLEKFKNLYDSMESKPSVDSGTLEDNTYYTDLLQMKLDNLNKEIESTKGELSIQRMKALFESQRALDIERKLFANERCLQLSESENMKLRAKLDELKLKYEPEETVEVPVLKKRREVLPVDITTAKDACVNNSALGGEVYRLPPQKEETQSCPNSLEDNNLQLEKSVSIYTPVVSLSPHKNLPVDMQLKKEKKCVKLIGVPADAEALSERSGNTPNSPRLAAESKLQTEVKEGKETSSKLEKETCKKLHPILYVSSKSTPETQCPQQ


Key:
Test in all cases: SEC
[1] = molecular target: Dynactin pointed end (PE) complex (p25, p27, p62, Arp11) (UniProt Q9BTE1)
Spindly^250-605 (human) = molecular target: T1, Spindly^250-605 (human)
[2] = molecular target: T2, Spindly^250-275_307-605 (human)

| Binder | binding [1] | binding (Spindly^250-605 (human)) | binding [2] |
| --- | --- | --- | --- |
| ^mChSpindly^Δ26-28 (protein, UniProt Q96EA4 1-605) MEADIITNLRCRLKEAEEERLKAAQQLVESQNELQNQLDKCRNEMMTMTESYEQEKYTLQREVELKSRMLESLSCECEAIKQQQKMHLEKLEEQLSRSHGQEVNELKTKIEKLKVELDEARLSEKQLKHQVDHQKELLSCKSEELRVMSERVQESMSSEMLALQIELTEMESMKTTLKEEVNELQYRQEQLELLITNLMRQVDRLKEEKEEREKEAVSYYNALEKARVANQDLQVQLDQALQQALDPNSKGNSLFAEVEDRRAAMERQLISMKVKYQSLKKQNVFNREQMQRMKLQIATLLQMKGSQTEFEQQERLLAMLEQKNGEIKHLLGEIRNLEKFKNLYDSMESKPSVDSGTLEDNTYYTDLLQMKLDNLNKEIESTKGELSIQRMKALFESQRALDIERKLFANERCLQLSESENMKLRAKLDELKLKYEPEETVEVPVLKKRREVLPVDITTAKDACVNNSALGGEVYRLPPQKEETQSCPNSLEDNNLQLEKSVSIYTPVVSLSPHKNLPVDMQLKKEKKCVKLIGVPADAEALSERSGNTPNSPRLAAESKLQTEVKEGKETSSKLEKETCKKLHPILYVSSKSTPETQCPQQ | no binding | – | – |
| ^mChSpindly^SM*-CC2* (F258A, R295E-K297E) (protein, UniProt Q96EA4 1-605) MEADIITNLRCRLKEAEEERLKAAQYGLQLVESQNELQNQLDKCRNEMMTMTESYEQEKYTLQREVELKSRMLESLSCECEAIKQQQKMHLEKLEEQLSRSHGQEVNELKTKIEKLKVELDEARLSEKQLKHQVDHQKELLSCKSEELRVMSERVQESMSSEMLALQIELTEMESMKTTLKEEVNELQYRQEQLELLITNLMRQVDRLKEEKEEREKEAVSYYNALEKARVANQDLQVQLDQALQQALDPNSKGNSLAAEVEDRRAAMERQLISMKVKYQSLKKQNVFNREQMQEMELQIATLLQMKGSQTEFEQQERLLAMLEQKNGEIKHLLGEIRNLEKFKNLYDSMESKPSVDSGTLEDNTYYTDLLQMKLDNLNKEIESTKGELSIQRMKALFESQRALDIERKLFANERCLQLSESENMKLRAKLDELKLKYEPEETVEVPVLKKRREVLPVDITTAKDACVNNSALGGEVYRLPPQKEETQSCPNSLEDNNLQLEKSVSIYTPVVSLSPHKNLPVDMQLKKEKKCVKLIGVPADAEALSERSGNTPNSPRLAAESKLQTEVKEGKETSSKLEKETCKKLHPILYVSSKSTPETQCPQQ | no binding | – | – |
| GST-Spindly^FL (protein, UniProt Q96EA4 1-605) MEADIITNLRCRLKEAEEERLKAAQYGLQLVESQNELQNQLDKCRNEMMTMTESYEQEKYTLQREVELKSRMLESLSCECEAIKQQQKMHLEKLEEQLSRSHGQEVNELKTKIEKLKVELDEARLSEKQLKHQVDHQKELLSCKSEELRVMSERVQESMSSEMLALQIELTEMESMKTTLKEEVNELQYRQEQLELLITNLMRQVDRLKEEKEEREKEAVSYYNALEKARVANQDLQVQLDQALQQALDPNSKGNSLFAEVEDRRAAMERQLISMKVKYQSLKKQNVFNREQMQRMKLQIATLLQMKGSQTEFEQQERLLAMLEQKNGEIKHLLGEIRNLEKFKNLYDSMESKPSVDSGTLEDNTYYTDLLQMKLDNLNKEIESTKGELSIQRMKALFESQRALDIERKLFANERCLQLSESENMKLRAKLDELKLKYEPEETVEVPVLKKRREVLPVDITTAKDACVNNSALGGEVYRLPPQKEETQSCPNSLEDNNLQLEKSVSIYTPVVSLSPHKNLPVDMQLKKEKKCVKLIGVPADAEALSERSGNTPNSPRLAAESKLQTEVKEGKETSSKLEKETCKKLHPILYVSSKSTPETQCPQQ | no binding | – | – |
| Spindly^51-250 (domain or fragment, UniProt Q96EA4 51-250) MTESYEQEKYTLQREVELKSRMLESLSCECEAIKQQQKMHLEKLEEQLSRSHGQEVNELKTKIEKLKVELDEARLSEKQLKHQVDHQKELLSCKSEELRVMSERVQESMSSEMLALQIELTEMESMKTTLKEEVNELQYRQEQLELLITNLMRQVDRLKEEKEEREKEAVSYYNALEKARVANQDLQVQLDQALQQALDP | – | no binding | – |
| Spindly^1-250 (domain or fragment, UniProt Q96EA4 1-250) MEADIITNLRCRLKEAEEERLKAAQYGLQLVESQNELQNQLDKCRNEMMTMTESYEQEKYTLQREVELKSRMLESLSCECEAIKQQQKMHLEKLEEQLSRSHGQEVNELKTKIEKLKVELDEARLSEKQLKHQVDHQKELLSCKSEELRVMSERVQESMSSEMLALQIELTEMESMKTTLKEEVNELQYRQEQLELLITNLMRQVDRLKEEKEEREKEAVSYYNALEKARVANQDLQVQLDQALQQALDP | no binding | – | no binding |
| mCherry-tagged full-length Spindly (^mChSpindly^FL) (protein, UniProt Q96EA4 1-605) MEADIITNLRCRLKEAEEERLKAAQYGLQLVESQNELQNQLDKCRNEMMTMTESYEQEKYTLQREVELKSRMLESLSCECEAIKQQQKMHLEKLEEQLSRSHGQEVNELKTKIEKLKVELDEARLSEKQLKHQVDHQKELLSCKSEELRVMSERVQESMSSEMLALQIELTEMESMKTTLKEEVNELQYRQEQLELLITNLMRQVDRLKEEKEEREKEAVSYYNALEKARVANQDLQVQLDQALQQALDPNSKGNSLFAEVEDRRAAMERQLISMKVKYQSLKKQNVFNREQMQRMKLQIATLLQMKGSQTEFEQQERLLAMLEQKNGEIKHLLGEIRNLEKFKNLYDSMESKPSVDSGTLEDNTYYTDLLQMKLDNLNKEIESTKGELSIQRMKALFESQRALDIERKLFANERCLQLSESENMKLRAKLDELKLKYEPEETVEVPVLKKRREVLPVDITTAKDACVNNSALGGEVYRLPPQKEETQSCPNSLEDNNLQLEKSVSIYTPVVSLSPHKNLPVDMQLKKEKKCVKLIGVPADAEALSERSGNTPNSPRLAAESKLQTEVKEGKETSSKLEKETCKKLHPILYVSSKSTPETQCPQQ | no binding | – | – |
| Spindly^1-440 (domain or fragment, UniProt Q96EA4 1-440) MEADIITNLRCRLKEAEEERLKAAQYGLQLVESQNELQNQLDKCRNEMMTMTESYEQEKYTLQREVELKSRMLESLSCECEAIKQQQKMHLEKLEEQLSRSHGQEVNELKTKIEKLKVELDEARLSEKQLKHQVDHQKELLSCKSEELRVMSERVQESMSSEMLALQIELTEMESMKTTLKEEVNELQYRQEQLELLITNLMRQVDRLKEEKEEREKEAVSYYNALEKARVANQDLQVQLDQALQQALDPNSKGNSLFAEVEDRRAAMERQLISMKVKYQSLKKQNVFNREQMQRMKLQIATLLQMKGSQTEFEQQERLLAMLEQKNGEIKHLLGEIRNLEKFKNLYDSMESKPSVDSGTLEDNTYYTDLLQMKLDNLNKEIESTKGELSIQRMKALFESQRALDIERKLFANERCLQLSESENMKLRAKLDELKLKYEP | no binding | – | – |
